Results are given in words; binding and its absence hold for the method and conditions named. For some assays here: Binding seen in cells or lysates may run through a third protein. Where a sequence is shown, tags or fusion partners need not be part of it.

The target in assay [1] is T1, GFP-RAB6A-S52D (human) (UniProt P20340).
T1 sequence: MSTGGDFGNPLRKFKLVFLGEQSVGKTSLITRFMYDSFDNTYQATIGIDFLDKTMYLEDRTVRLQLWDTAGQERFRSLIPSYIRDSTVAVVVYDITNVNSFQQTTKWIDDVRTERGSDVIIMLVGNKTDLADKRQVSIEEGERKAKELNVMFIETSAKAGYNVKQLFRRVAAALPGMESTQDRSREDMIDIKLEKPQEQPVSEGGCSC
In words: co-IP; GFP-trap (Chromotek) on extracts of HeLa cells transfected with GFP, GFP-RAB6A or GFP-RAB6A-S52D; lysis buffer 25 mM Tris pH 7.5, 100 mM NaCl, 0.1% NP-40; endogenous ELKS.

The target in assay [2] is T2, ELKS full length (LexA fusion) (UniProt Q8IUD2).
T2 sequence: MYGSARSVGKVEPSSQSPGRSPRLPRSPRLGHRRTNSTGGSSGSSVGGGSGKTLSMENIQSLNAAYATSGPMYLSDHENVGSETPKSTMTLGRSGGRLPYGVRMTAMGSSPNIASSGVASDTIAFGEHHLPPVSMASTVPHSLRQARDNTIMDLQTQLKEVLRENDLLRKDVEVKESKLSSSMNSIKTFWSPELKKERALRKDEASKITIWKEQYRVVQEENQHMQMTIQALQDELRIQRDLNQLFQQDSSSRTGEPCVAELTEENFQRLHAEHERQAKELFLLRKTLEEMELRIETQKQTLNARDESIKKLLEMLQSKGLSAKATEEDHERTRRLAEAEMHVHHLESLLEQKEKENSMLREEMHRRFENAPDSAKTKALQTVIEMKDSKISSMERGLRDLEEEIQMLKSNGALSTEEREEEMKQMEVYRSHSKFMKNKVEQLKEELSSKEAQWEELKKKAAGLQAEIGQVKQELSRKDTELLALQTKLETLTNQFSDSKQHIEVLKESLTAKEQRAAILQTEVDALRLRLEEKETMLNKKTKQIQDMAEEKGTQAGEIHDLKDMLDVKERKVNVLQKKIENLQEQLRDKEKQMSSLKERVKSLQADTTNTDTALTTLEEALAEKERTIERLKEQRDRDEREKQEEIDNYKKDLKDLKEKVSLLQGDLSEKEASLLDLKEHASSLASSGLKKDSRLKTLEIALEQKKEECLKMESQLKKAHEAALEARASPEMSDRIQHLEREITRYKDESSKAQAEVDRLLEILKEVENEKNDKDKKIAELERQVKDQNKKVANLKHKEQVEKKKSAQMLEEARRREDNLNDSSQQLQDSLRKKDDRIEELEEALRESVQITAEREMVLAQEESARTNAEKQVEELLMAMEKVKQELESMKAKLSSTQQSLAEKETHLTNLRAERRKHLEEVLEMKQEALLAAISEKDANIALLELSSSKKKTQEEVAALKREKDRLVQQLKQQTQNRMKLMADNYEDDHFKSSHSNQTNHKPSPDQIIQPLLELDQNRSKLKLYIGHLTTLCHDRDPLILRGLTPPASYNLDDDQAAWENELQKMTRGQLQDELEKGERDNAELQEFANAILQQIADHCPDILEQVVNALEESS
In words: two-hybrid; S. cerevisiae reporter strain L40; LexA fusion of ELKS full length and GAL4 fusions of RAB6A-Q72L or RAB6A-Q72L-S52D; growth on medium lacking histidine (-L-W-H) indicates interaction.

B1: endogenous ELKS (protein, UniProt Q8IUD2 1-1116)
chain: MYGSARSVGKVEPSSQSPGRSPRLPRSPRLGHRRTNSTGGSSGSSVGGGSGKTLSMENIQSLNAAYATSGPMYLSDHENVGSETPKSTMTLGRSGGRLPYGVRMTAMGSSPNIASSGVASDTIAFGEHHLPPVSMASTVPHSLRQARDNTIMDLQTQLKEVLRENDLLRKDVEVKESKLSSSMNSIKTFWSPELKKERALRKDEASKITIWKEQYRVVQEENQHMQMTIQALQDELRIQRDLNQLFQQDSSSRTGEPCVAELTEENFQRLHAEHERQAKELFLLRKTLEEMELRIETQKQTLNARDESIKKLLEMLQSKGLSAKATEEDHERTRRLAEAEMHVHHLESLLEQKEKENSMLREEMHRRFENAPDSAKTKALQTVIEMKDSKISSMERGLRDLEEEIQMLKSNGALSTEEREEEMKQMEVYRSHSKFMKNKVEQLKEELSSKEAQWEELKKKAAGLQAEIGQVKQELSRKDTELLALQTKLETLTNQFSDSKQHIEVLKESLTAKEQRAAILQTEVDALRLRLEEKETMLNKKTKQIQDMAEEKGTQAGEIHDLKDMLDVKERKVNVLQKKIENLQEQLRDKEKQMSSLKERVKSLQADTTNTDTALTTLEEALAEKERTIERLKEQRDRDEREKQEEIDNYKKDLKDLKEKVSLLQGDLSEKEASLLDLKEHASSLASSGLKKDSRLKTLEIALEQKKEECLKMESQLKKAHEAALEARASPEMSDRIQHLEREITRYKDESSKAQAEVDRLLEILKEVENEKNDKDKKIAELERQVKDQNKKVANLKHKEQVEKKKSAQMLEEARRREDNLNDSSQQLQDSLRKKDDRIEELEEALRESVQITAEREMVLAQEESARTNAEKQVEELLMAMEKVKQELESMKAKLSSTQQSLAEKETHLTNLRAERRKHLEEVLEMKQEALLAAISEKDANIALLELSSSKKKTQEEVAALKREKDRLVQQLKQQTQNRMKLMADNYEDDHFKSSHSNQTNHKPSPDQIIQPLLELDQNRSKLKLYIGHLTTLCHDRDPLILRGLTPPASYNLDDDQAAWENELQKMTRGQLQDELEKGERDNAELQEFANAILQQIADHCPDILEQVVNALEESS
Consider B1, for which, in assay [1], the binding result was “no binding”.

B2: RAB6A-Q72L-S52D (GAL4 fusion) (protein, UniProt P20340 1-208)
chain: MSTGGDFGNPLRKFKLVFLGEQSVGKTSLITRFMYDSFDNTYQATIGIDFLDKTMYLEDRTVRLQLWDTAGLERFRSLIPSYIRDSTVAVVVYDITNVNSFQQTTKWIDDVRTERGSDVIIMLVGNKTDLADKRQVSIEEGERKAKELNVMFIETSAKAGYNVKQLFRRVAAALPGMESTQDRSREDMIDIKLEKPQEQPVSEGGCSC
Regarding B2, the binding entry in assay [2] is “no binding”.

These data come from PMC6605799.
